Data as given in the supplement of paper PMC10849652.
This is one part of the list. Residues, ends and D or L forms follow the SMILES beside them. *: point of attachment. Cbz = O=C(OCc1ccccc1)*

Chains of the proteins cited; added tags and fusions are not shown. Lines headed by an entry give the natural chain unless they say otherwise; changes in a name come on top.
UniProt P05114: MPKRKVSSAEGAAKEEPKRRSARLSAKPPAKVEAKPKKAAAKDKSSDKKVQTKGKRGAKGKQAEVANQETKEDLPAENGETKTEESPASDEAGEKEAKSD
UniProt Q9P2D0: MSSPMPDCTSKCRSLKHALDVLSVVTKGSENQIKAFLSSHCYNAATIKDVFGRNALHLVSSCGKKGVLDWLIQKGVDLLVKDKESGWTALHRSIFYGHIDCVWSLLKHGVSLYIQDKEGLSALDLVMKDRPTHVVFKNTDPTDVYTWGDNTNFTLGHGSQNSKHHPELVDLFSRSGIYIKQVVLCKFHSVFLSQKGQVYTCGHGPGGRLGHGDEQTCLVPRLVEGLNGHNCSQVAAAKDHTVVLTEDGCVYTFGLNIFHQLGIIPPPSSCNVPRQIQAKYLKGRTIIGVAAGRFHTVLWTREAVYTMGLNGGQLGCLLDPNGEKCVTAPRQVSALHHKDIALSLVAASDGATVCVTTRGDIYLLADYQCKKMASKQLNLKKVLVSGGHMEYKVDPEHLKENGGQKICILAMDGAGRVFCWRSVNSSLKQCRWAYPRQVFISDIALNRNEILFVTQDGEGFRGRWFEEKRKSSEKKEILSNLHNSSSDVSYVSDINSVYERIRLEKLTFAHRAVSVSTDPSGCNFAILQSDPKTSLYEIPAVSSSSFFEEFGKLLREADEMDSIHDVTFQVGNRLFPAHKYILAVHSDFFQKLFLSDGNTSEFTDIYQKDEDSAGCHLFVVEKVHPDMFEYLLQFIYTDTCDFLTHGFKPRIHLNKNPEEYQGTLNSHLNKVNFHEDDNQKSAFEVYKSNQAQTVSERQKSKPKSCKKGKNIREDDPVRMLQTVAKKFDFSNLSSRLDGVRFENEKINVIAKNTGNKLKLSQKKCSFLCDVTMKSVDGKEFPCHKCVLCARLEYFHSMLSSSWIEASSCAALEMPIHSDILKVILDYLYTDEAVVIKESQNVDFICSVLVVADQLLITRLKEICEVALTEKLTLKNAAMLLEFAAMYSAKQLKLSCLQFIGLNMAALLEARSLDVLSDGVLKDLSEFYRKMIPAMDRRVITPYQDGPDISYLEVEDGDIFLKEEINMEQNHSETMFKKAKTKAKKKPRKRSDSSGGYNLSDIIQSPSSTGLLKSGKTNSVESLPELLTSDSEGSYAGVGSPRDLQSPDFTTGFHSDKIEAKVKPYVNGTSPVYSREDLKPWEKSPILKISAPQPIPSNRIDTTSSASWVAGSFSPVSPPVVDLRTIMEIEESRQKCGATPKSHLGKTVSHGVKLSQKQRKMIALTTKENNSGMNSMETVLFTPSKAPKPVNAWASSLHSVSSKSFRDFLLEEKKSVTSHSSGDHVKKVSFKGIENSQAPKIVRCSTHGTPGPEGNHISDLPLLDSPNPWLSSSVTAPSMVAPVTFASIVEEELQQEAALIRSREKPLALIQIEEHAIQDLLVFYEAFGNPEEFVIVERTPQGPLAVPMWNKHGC
UniProt Q9Y2F5: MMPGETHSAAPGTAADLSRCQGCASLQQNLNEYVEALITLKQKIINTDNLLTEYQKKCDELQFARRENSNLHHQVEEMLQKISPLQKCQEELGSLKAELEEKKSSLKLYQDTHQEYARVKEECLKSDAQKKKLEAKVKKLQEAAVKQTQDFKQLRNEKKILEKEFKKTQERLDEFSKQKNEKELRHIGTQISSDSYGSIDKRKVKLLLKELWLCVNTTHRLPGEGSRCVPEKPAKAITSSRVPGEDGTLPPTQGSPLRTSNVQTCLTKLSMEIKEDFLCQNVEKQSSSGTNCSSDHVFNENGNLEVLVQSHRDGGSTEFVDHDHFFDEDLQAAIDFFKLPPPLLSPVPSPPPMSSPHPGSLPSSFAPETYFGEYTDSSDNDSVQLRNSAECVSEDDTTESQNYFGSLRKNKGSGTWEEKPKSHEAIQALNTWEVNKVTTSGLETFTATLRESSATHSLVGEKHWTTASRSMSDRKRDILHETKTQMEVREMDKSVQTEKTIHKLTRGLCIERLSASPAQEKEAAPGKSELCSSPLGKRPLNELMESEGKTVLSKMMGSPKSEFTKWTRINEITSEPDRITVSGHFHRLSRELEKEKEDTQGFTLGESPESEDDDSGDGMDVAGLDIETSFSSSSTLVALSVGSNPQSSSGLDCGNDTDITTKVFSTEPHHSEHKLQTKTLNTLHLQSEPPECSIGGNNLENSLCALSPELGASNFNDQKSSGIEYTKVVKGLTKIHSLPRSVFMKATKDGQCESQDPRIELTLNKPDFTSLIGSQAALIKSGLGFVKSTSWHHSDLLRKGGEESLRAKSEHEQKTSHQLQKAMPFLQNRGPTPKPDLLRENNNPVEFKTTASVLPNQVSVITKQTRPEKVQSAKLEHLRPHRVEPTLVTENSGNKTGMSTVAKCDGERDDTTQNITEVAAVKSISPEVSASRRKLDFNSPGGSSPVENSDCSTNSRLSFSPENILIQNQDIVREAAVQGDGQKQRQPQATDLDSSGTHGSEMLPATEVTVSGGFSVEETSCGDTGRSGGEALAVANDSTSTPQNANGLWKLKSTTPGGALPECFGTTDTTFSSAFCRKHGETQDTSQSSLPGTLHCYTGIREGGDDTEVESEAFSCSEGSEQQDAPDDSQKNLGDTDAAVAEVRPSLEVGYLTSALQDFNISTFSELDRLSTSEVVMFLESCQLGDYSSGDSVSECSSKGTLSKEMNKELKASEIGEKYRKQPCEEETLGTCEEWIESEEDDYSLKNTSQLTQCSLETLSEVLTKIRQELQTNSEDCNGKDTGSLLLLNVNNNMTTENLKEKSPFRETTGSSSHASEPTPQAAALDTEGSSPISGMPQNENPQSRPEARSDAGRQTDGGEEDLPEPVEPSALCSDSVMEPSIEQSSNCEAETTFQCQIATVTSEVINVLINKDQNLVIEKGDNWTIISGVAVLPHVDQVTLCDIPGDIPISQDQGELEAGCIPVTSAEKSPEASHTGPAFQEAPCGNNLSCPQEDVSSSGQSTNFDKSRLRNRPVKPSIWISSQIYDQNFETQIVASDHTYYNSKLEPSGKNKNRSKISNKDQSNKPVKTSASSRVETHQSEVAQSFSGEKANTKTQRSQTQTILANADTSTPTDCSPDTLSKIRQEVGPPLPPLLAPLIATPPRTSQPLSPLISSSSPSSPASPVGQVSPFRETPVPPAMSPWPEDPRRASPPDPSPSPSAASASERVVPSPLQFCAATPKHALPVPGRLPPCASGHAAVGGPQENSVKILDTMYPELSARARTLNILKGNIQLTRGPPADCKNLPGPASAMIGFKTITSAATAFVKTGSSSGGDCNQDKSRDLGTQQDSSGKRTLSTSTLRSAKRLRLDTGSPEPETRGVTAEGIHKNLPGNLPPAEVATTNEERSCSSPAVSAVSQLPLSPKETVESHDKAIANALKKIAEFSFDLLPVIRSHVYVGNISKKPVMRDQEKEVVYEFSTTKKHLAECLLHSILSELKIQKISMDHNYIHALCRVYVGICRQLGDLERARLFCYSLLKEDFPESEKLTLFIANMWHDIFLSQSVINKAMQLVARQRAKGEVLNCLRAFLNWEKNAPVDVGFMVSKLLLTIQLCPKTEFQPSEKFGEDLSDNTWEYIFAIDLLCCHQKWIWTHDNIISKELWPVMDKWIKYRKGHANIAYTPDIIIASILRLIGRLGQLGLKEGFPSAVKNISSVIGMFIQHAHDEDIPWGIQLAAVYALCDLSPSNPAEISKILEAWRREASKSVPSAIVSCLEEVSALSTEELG
UniProt H0YH80: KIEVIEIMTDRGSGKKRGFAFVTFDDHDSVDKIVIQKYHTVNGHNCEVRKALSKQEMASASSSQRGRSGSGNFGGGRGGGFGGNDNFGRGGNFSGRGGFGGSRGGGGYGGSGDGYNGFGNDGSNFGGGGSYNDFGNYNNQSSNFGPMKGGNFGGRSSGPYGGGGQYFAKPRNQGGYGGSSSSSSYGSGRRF
UniProt Q13151: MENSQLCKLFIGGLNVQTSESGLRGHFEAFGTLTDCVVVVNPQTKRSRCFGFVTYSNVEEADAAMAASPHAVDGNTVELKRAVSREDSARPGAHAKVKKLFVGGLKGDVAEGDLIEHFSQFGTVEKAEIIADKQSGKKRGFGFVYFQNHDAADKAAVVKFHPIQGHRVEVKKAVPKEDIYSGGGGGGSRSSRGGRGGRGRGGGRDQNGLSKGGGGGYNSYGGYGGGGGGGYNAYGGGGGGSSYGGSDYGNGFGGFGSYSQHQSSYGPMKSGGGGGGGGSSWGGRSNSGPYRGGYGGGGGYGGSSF
UniProt P30519: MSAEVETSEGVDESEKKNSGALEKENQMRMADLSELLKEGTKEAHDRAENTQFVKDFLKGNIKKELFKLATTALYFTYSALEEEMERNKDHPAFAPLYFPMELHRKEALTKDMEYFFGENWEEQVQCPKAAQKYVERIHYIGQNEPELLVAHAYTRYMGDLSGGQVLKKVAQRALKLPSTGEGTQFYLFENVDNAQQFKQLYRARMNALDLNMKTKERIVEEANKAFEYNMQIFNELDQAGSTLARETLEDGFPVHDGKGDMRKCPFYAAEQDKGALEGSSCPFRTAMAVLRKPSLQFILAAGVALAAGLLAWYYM
UniProt Q8TB92: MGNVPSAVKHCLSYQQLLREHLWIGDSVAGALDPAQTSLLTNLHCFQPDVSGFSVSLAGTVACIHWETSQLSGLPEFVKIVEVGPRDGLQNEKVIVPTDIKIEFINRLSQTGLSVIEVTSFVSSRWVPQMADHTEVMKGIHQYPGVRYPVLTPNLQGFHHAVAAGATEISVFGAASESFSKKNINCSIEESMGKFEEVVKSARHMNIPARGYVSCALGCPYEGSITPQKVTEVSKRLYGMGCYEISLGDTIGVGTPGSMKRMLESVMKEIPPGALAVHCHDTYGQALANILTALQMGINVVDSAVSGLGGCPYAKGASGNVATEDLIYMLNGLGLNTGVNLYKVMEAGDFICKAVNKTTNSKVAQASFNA
UniProt Q9BUJ2: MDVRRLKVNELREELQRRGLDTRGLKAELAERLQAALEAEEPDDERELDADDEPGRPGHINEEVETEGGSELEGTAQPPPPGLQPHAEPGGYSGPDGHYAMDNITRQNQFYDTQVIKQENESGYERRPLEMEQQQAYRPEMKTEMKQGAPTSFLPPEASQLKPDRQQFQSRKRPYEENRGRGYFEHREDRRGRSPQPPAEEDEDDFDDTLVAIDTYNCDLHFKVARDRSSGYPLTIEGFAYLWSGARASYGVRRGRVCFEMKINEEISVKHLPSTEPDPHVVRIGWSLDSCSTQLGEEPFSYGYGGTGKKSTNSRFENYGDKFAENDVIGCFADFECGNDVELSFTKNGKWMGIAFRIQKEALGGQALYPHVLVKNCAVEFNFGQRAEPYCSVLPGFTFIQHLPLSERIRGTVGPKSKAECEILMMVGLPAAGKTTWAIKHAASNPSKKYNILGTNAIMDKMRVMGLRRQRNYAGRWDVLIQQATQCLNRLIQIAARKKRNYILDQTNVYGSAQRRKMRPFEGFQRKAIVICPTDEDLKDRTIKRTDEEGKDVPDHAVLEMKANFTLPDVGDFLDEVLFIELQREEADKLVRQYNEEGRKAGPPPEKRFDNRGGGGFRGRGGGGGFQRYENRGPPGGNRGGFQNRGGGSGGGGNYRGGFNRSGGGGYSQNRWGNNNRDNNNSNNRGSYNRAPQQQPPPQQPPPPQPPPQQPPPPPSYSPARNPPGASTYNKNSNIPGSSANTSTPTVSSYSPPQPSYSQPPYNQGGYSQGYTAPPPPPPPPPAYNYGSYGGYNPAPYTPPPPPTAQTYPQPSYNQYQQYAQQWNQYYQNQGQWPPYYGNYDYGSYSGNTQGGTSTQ
UniProt O43390: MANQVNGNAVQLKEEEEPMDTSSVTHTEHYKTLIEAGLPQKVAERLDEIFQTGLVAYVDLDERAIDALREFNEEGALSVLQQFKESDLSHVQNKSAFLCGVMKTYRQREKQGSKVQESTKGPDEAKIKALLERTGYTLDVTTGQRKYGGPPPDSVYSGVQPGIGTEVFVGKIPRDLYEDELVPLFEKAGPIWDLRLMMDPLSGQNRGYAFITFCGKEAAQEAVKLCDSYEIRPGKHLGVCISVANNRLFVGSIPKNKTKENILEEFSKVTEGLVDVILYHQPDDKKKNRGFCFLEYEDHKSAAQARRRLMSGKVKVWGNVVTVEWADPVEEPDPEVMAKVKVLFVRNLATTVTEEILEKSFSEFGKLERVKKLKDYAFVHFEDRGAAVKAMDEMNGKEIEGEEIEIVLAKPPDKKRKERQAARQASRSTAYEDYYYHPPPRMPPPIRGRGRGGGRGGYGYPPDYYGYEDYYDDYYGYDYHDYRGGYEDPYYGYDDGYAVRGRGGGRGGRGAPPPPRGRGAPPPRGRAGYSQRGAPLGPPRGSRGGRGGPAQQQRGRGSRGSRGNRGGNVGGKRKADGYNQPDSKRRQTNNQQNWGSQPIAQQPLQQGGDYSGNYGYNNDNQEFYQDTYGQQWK

Tests used:
Experiment in all cases: log2 fold change, soluble protein after heating vs DMSO (PISA); higher = thermal stabilisation; K562 cells, 10 uM, 30 min; active = over 0.2 and 3.5 SD of the protein, either way, in both replicates (recomputed)
[1] = compound: C1COCCN1CCN2C3=CC=CC=C3N=C2NC(=O)C4=CC(=CC=C4)[N+](=O)[O-] [IRAK-1-4 Inhibitor I]
Method in brief: (§1)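 K562 cells at 2×10^6 cells/mL were exposed to 10 μM compound for 30 min, then aliquots were heated for 3 min across 48°C-58°C, pooled, and extracted in PBS containing 0.5% NP-40 at 4°C. The supernatant after 21,000xg for 90 min was taken as soluble protein and measured by TMTpro 16plex LC-MS/MS with channel sums equalised. Thermal stability is reported relative to control samples, with values from duplicates. Fold changes are given on a log2 scale.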

[2] = compound: C=CC(=O)N1CCC[C@@H](n2nc(-c3ccc(Oc4ccccc4)cc3)c3c(N)ncnc32)C1 [ibrutinib]
Method in brief: as §1

[3] = compound: CC(=O)c1cnc2ccc(-c3cc(Cl)c(O)c(Cl)c3)nc2c1N[C@H]1CC[C@H](CN(C)C)CC1
Method in brief: as §1

[4] = compound: CC(C)(C)Cn1c(N)nc2ccc(-c3[nH]c(C(C)(C)C)nc3-c3ccc(F)cc3)nc21 [ralimetinib]
Method in brief: as §1

[5] = compound: CC(C)(O)CC(=O)NCCn1ccc2ncnc(Nc3ccc(Oc4cccc(C(F)(F)F)c4)c(Cl)c3)c21
Method in brief: as §1

[6] = compound: CC(C)C1=C2N=C(C=C(N2N=C1)NCC3=CC=CC=C3)NCCCCCCN
Method in brief: as §1

[7] = compound: CC(C)C[C@@H](C=O)NC(=O)[C@H](CC(C)C)NC(=O)[C@H](CC(C)C)NC(=O)OCc1ccccc1
Method in brief: as §1

[8] = compound: CC(C)N(C[C@H]1O[C@@H](n2cnc3c(N)ncnc32)[C@H](O)[C@@H]1O)[C@H]1C[C@@H](CCc2nc3cc(C(C)(C)C)ccc3[nH]2)C1 [pinometostat]
Method in brief: as §1

[9] = compound: CC1=C(C2=C(C=C1)C(=O)C3=CC=CC=C3N2CCCN)C
Method in brief: as §1

[10] = compound: CC1=C(C=C(C=C1)NC(=O)C2=CC(=CC=C2)C(C)(C)C#N)NC3=CC4=C(C=C3)N=CN(C4=O)C
Method in brief: as §1

[11] = compound: CC1=C(C=C(C=C1)NC(=O)C2=CC(=CC=C2)N(C)C)NC(=O)C3=CC=C(C=C3)O
Method in brief: as §1

[12] = compound: CC1=CC=C(C=C1)SC2=C3C=C(SC3=CN=C2)C(=O)N
Method in brief: as §1

[13] = compound: CC1=NC(=CC=C1)C2=C(N=C(N2)C(C)(C)C)C3=CC4=NC=CN=C4C=C3
Method in brief: as §1

[14] = compound: CCCCN(Cc1ccc(C(=O)NO)cc1)C(=O)Nc1ccccc1 [Nexturastat A]
Method in brief: as §1

[15] = compound: CCCS(=O)(=O)Nc1ccc(F)c(C(=O)c2c[nH]c3ncc(-c4ccc(Cl)cc4)cc23)c1F [vemurafenib]
Method in brief: as §1

[16] = compound: CCCS(=O)(=O)Nc1ccc(F)c(C(=O)c2c[nH]c3ncc(Cl)cc23)c1F
Method in brief: as §1

[17] = compound: CCCc1cc(C)[nH]c(=O)c1CNC(=O)c1cc(-c2ccnc(N3CCN(C)CC3)c2)cc2c1cnn2C(C)C
Method in brief: as §1

[18] = compound: CCN(CC)Cc1ccc2cc(COC(=O)Nc3ccc(C(=O)NO)cc3)ccc2c1 [givinostat]
Method in brief: as §1

[19] = compound: CCN(CCCOc1ccc2c(Nc3cc(CC(=O)Nc4cccc(F)c4)[nH]n3)ncnc2c1)CCOP(=O)(O)O [barasertib]
Method in brief: as §1

[20] = compound: CC1=C(C(CC(=O)N1)C2=CC=C(C=C2)C(F)(F)F)C(=O)NC3=C(C=C4C(=C3)C=NN4)F
Method in brief: as §1

Measured: log2 fold change

HMGN1 (UniProt P05114)
inactive: [1] -0.006 | [2] 0.049 | [3] 0.064 | [4] 0.032 | [5] 0.166 | [6] 0.148 | [7] 0.042 | [8] -0.022 | [10] 0.056 | [11] 0.027 | [12] -0.048 | [13] 0.078 | [14] -0.017 | [15] 0.004 | [16] -0.064 | [17] -0.033 | [18] -0.119 | [19] -0.06
active: [9] 0.294

IBTK (UniProt Q9P2D0)
inactive: [1] -0.149 | [2] -0.08 | [3] -0.004 | [4] 0.073 | [5] 0.087 | [7] 0.057 | [8] 0.33 | [20] 0.114 | [9] 0.027 | [10] -0.067 | [11] 0.061 | [12] -0.222 | [13] -0.067 | [14] 0.217 | [16] -0.082 | [19] 0.125

ICE1 (UniProt Q9Y2F5)
inactive: [1] -0.008 | [2] -0.072 | [5] 0.006 | [8] 0.071 | [20] 0.14 | [10] -0.142 | [13] -0.112 | [14] -0.029 | [17] -0.058 | [19] 0.043

HNRNPA1 (UniProt H0YH80)
inactive: [1] -0.073 | [2] 0.073 | [3] 0.043 | [4] 0.185 | [5] 0.272 | [7] 0.024 | [8] 0.345 | [20] 0.014 | [9] -0.655 | [10] -0.065 | [11] 0.074 | [13] -0.174 | [14] 0.384 | [15] -0.21 | [17] 0.116 | [19] -0.177

HNRNPA0 (UniProt Q13151)
inactive: [1] -0.172 | [2] 0.017 | [3] -0.104 | [5] -0.081 | [6] -0.262 | [8] 0.254 | [20] -0.171 | [9] 0.21 | [10] 0.095 | [12] -0.069 | [13] -0.099 | [14] 0.101 | [15] -0.117 | [16] 0.062 | [17] 0.098 | [18] 0.223 | [19] -0.052

HMOX2 (UniProt P30519)
inactive: [1] -0.061 | [2] -0.035 | [3] -0.092 | [4] 0.081 | [5] 0.031 | [6] 0.08 | [7] 0.028 | [8] 0 | [9] 0.012 | [10] 0 | [11] -0.06 | [12] 0.036 | [13] -0.019 | [14] -0.023 | [15] 0.034 | [16] 0.012 | [17] 0.097 | [18] 0.015 | [19] 0.042

HMGCLL1 (UniProt Q8TB92)
inactive: [1] 0.118 | [2] 0.094 | [3] 0.022 | [5] -0.041 | [6] -0.026 | [8] 0.074 | [20] -0.015 | [9] 0.087 | [10] -0.033 | [13] -0.02 | [14] -0.101 | [15] 0.029 | [17] -0.019 | [18] -0.015 | [19] -0.035

HNRNPUL1 (UniProt Q9BUJ2)
inactive: [1] -0.055 | [2] 0 | [3] -0.072 | [4] 0.005 | [5] 0.027 | [6] 0.007 | [7] 0.035 | [8] 0.01 | [9] -0.096 | [10] -0.063 | [11] -0.058 | [12] -0.013 | [13] 0.03 | [14] 0.024 | [15] 0.032 | [16] -0.033 | [17] 0.024 | [18] 0.046 | [19] 0.04

HNRNPR (UniProt O43390)
inactive: [1] -0.312 | [2] -0.04 | [5] 0.141 | [8] 0.015 | [20] -0.088 | [10] 0.169 | [12] -0.207 | [13] -0.168 | [14] 0.218 | [16] -0.226 | [17] 0.029 | [19] -0.139
